Reference: patent US7973213B2, “Antibiotic resistance conferred by a plant ABC transporter gene when expressed in transgenic plants” (University of Tennessee Research Foundation, priority 2005, dated 2011)
At least one compound was matched to its structure with a doubt left.

Test system: transgenic tobacco events 28 and 30
Assay: Resistance of Atwbc19 transgenic tobacco events to other antibiotics
Format: in vivo, Nicotiana tabacum
Details: Atwbc19-only transgenic events 28 and 30

CN[C@@H]1[C@@H](O)[C@@H](O[C@@H]2[C@@H](O)[C@H](O[C@H]3O[C@H]([C@@H](C)O)[C@@H](O)[C@H](O)[C@H]3N)[C@@H](N)C[C@H]2N)OC[C@]1(C)O [geneticin]
resistance of plants to the antibiotic: no resistance
